Experimental data reported in patent publication US8835458B2 (Hanmi Science Co., Ltd, priority 2010, dated 2014).
The structures given here were assigned with low confidence; some may be wrong.

Key:
Balb/c3t3 fibroblasts = conditions: tested form: HCl
[1] = system: MDA-MB-231 breast cancer cell lines; test: Evaluation of inhibition on cell growth (MTS); conditions: read-out: MDA-MB-231 (GI50), 120 hours, tested form: HCl
Hs27 fibroblasts = conditions: tested form: HCl

GI50 (Balb/c3t3 fibroblasts): > 10 µM
GI50 [1]: > 1 µM
GI50 (Hs27 fibroblasts): > 10 µM
SMILES: CN[C@@H](C)C(=O)N[C@H](C(=O)N1CCC[C@H](C(=O)Nc2cc3c(Nc4ccc(F)c(Cl)c4F)ncnc3cc2OC)C1)C(C)(C)C
